Laboratory results: paper doi:10.1101/2021.08.20.457118
These are yes or no findings as the source states them, for the method shown. A result given as binding can be weak or reduced; the word gives no strength. Sequences can lack the tags named with a protein.

Biological target: T1, UFD-2 (tagless recombinant) (C. elegans) (UniProt Q09349)
T1 sequence: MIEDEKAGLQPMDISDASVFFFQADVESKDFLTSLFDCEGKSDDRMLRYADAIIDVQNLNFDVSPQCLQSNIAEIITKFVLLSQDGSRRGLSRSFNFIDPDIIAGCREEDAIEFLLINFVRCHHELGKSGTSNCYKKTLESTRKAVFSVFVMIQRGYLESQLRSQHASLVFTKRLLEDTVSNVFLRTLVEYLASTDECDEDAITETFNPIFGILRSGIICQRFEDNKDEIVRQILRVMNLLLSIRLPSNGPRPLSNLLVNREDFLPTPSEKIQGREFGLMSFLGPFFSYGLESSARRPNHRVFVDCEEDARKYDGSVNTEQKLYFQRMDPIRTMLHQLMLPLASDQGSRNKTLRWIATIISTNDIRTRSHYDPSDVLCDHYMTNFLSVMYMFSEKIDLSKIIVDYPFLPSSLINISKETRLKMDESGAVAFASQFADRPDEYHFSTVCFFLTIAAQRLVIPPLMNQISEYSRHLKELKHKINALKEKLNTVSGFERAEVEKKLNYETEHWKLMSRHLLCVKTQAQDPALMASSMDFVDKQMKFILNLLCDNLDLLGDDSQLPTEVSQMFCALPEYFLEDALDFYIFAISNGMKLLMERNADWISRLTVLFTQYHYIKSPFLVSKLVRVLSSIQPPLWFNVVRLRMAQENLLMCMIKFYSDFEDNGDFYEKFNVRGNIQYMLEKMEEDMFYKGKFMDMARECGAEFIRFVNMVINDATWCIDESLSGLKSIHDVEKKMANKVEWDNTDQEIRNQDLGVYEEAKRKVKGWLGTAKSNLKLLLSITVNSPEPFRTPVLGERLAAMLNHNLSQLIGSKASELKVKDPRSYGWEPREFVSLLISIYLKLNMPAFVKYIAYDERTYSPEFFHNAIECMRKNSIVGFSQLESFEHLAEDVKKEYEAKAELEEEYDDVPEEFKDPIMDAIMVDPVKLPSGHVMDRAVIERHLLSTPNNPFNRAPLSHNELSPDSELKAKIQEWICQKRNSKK
Test: ELISA

“CHN-1 (untagged recombinant) (C. elegans) (enzyme)” was tested, and the binding was “binds”.
